# Some of the results follow. This data set is noisy: repeats of one test often differ as much as different tests do.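 HEK293T cells were given each compound shortly before transfection with a reporter in which red mCherry is followed by the SARS-CoV-2 frameshift element and then GFP in the −1 frame, so GFP appears only after frameshifting.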
# Tested on: HEK293T
# Experiment: percent viability (nuclei count) relative to control; higher = more viable cells
# Details: 10 µM; 24 h
row,Structure (SMILES),percent viability
1,CC(C)NC(=N)NC(=N)Nc1ccc(Cl)cc1 [proguanil],421%
2,CC(C)(C)NCC(O)COc1cccc2c1CCC(=O)N2 (centres undefined) [carteolol],243%
3,CO[C@H]1C[C@@H]2CC[C@@H](C)[C@@](O)(O2)C(=O)C(=O)N2CCCC[C@H]2C(=O)O[C@H]([C@H](C)C[C@@H]2CC[C@@H](O)[C@H](OC)C2)CC(=O)[C@H](C)/C=C(\C)[C@@H](O)[C@@H](OC)C(=O)[C@H](C)C[C@H](C)/C=C/C=C/C=C/1C [Rapamune],78.8%
4,CC1(C)S[C@@H]2[C@H](NC(=O)[C@H](NC(=O)N3CCNC3=O)c3ccccc3)C(=O)N2[C@H]1C(=O)O,314%

# Reference: the supplement of paper PMC8256030
